From US20230046744A1 (APO T B V, published 2023)
Results are given in words; binding and its absence hold for the method and conditions named. Some entries that bind do so weakly or less than the wild type.

By UniProt entry, the sequences of proteins in these tests, tags left out. Residues count along the entry.
UniProt P07766, residues 23-207: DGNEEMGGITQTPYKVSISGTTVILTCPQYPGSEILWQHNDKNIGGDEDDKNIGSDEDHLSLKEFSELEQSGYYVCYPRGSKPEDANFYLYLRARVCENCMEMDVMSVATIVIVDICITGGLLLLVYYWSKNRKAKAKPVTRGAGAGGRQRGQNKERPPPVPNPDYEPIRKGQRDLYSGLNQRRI

Biological target: CD3 molecule expressed on the surface of T cells (human) (UniProt P07766)
Test: told with the construct; no direct binding assay described

B1: 1B10×CD3 bispecific nanobody (bispecific antibody)
chain: EVQLVESGGGLVQPGGSLKLSCQASRMLFKVNTMGWYRQGPGKQRELVADITEGGSIKYADSVKGRFTISRDNAKTTVYLQMNSLKPEDTAVYFCNAIDRVNSQYWGQGTQVTVSSGGGGSQVKLEESGGGLVQAGGLLRVSCTASGRTFDTMGWFRQAPGKEREFVAAVRWSSGNTLYGNTVKGRFTISRDTATNTVYLQMSSLKHEDTAVYYCAARWGGRGAADHWGQGTQVTVSSHHHHHH
binding: binds
